Screen size: about 360,000 compounds; about 9,100 (2.5%) were called active. The shares of active, inactive and inconclusive entries below differ from those in the screen. No stated cut-off is given here; in the data, active means max response below about -50%; inconclusive means no clear call, values can overlap the other calls; inactive means above that.
Biological target: D(3) dopamine receptor (Homo sapiens) (UniProt P35462)
Experiment: qHTS of D3 Dopamine Receptor Antagonist: qHTS
Conditions: D3R cells, DiscoveRx beta-arrestin luminescence, antagonist mode; hits give low values
Summary of the method: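 Cells expressing the human receptor were seeded at 1500 cells/well, incubated overnight at 37 degrees C in 5% CO2, then exposed to library compounds with dopamine controls for 90 minutes at 37 degrees C before luminescent detection.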
On the % scale 0 is the no-effect control and ±100 the full control effect.

The chains behind the UniProt entries cited, without tags or fusion partners.
UniProt P35462, whole entry, looked up: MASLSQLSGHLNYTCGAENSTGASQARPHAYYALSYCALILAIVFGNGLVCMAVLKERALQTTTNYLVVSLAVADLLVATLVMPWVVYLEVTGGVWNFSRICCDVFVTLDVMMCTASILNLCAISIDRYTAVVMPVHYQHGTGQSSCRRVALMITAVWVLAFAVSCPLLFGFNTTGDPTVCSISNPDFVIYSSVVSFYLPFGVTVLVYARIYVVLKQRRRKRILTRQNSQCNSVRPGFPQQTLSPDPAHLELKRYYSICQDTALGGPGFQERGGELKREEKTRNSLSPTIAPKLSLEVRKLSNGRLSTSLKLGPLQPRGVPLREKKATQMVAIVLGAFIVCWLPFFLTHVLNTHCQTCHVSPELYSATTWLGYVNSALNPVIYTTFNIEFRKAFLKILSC

Max response, negative = inhibition, inactive:
Cc1ccccc1-c1nc(CN2CCC(C(=O)N3CCN(c4ccccn4)CC3)CC2)c(C)o1 -4.38%
O=C([C@H]1O[C@@H](n2ccc(=O)[nH]c2=O)[C@H](O)[C@@H]1O)N(CCC1=CCCCC1)CC1CC1 0%
CC1(C)C(=O)OC(c2c3ccccc3cc3ccccc23)C(C)(C)C1=O (stereo not given) 10.3%
CCCCNc1nc(CC)c2c(c1C#N)CCCC2 -18.7%
Cc1ccc(F)cc1CNC(=O)c1cc(COc2ccc3ncccc3c2)on1 -3.62%
COc1c(Br)cc2c(C)c(C(=O)O)oc2c1Br -14.8%
COc1cc2ccccc2ccc1=NO 1.08%
COc1ccc(CNC(=O)CCSCc2cccc(F)c2)cc1 13.7%
O=C(C(c1ccccc1)N1CCOCC1)N1CCOCC1 (stereo not given) -25.5%
O=C(c1ccc(Cl)c(Cl)c1)N1CCN(c2ccccn2)CC1 -11%
CC(O)(c1ccc(Cl)cc1)C(c1ccccc1)c1ccccn1 (stereo not given) -5.04%
COc1ccc(N(CC(=O)Nc2cc(C)ccc2C)S(=O)(=O)c2c(C)noc2C)cc1 3.8%
CC(C)(Oc1ccc(Cl)cc1)C(=O)NCCN1C(=O)S/C(=C/c2cccnc2)C1=O 3.85%
O=C(Cc1ccc(Cl)c(Cl)c1)OCC(=O)c1ccc[nH]1 -3.64%
CC(C)Nc1ncnc2c1ncn2[C@H]1CN(Cc2ccccc2)C[C@@H](CO)O1 3.25%
O=C(NCC1COc2ccccc2O1)c1ccc(NC(=O)c2ccco2)cc1 (stereo not given) -16.6%
CC(=O)Nc1nc(C)c(-c2csc(Nc3cccc(C(C)=O)c3)n2)s1 50.4%
CCCN(CC(=O)Nc1ccccc1C)C(=O)c1ccc(-c2ccccc2)cc1 -9.71%
Cc1cc(OCCCn2ccnc2)cc(C)c1Cl 23.7%
CCOC(=O)C(Sc1cc(-c2ccccc2)nc2ncnn12)C(C)=O (stereo not given) -1.75%

Max response, negative = inhibition, inconclusive:
O=C(CC12CC3CC(CC(C3)C1)C2)NC(=S)NCc1ccccc1 -42.7%
COc1ccc(CN2CCC(CO)(Cc3ccccc3C(F)(F)F)CC2)c(F)c1 -33.1%
CCOC(=O)c1ccc2c(c1)n(CC)c(/C=C/Nc1ccccc1)[n+]2CC -48.8%
COc1ccc(C(=O)N2CCC2(C)C(=O)O)cc1C(F)(F)F (stereo not given) -46.4%
Nc1cccc2cnccc12 -44.6%
CCOC(=S)SCc1cn2ccc(C)cc2n1 -33%
COc1ccccc1/C=C/C(=O)NCC(=O)N1CCC(N(C)C2CCCC2)CC1 -49.4%
Cc1cc(N=Nc2ccccc2)c(NCC(O)C(O)C(O)CO)cc1C (stereo not given) -41.1%
CCOC(=O)c1ccc(NC(=O)CNC(=O)C2CCCCC2)cc1 -39.8%
COc1cccc2sc(NNC(=O)c3nc4ccccc4s3)nc12 -30.2%
COc1cccc2cc(C(C)N(CCCN3CCOCC3)C(=S)Nc3cccc(C)c3)oc12 (stereo not given) -48.4%
Cc1ccc(-n2c(C)cc(C)c(C#N)c2=O)cc1Cl -34.9%
Cc1ccc(-c2nc3ccsc3c(=O)[nH]2)cc1 -30.4%
O=C(O)C1=C(C(=O)O)C2C=CC1C2 -41.3%
CC(=O)OC(C(=O)Nc1ccccc1)C(C)S(=O)(=O)c1ccccc1 (stereo not given) -34.9%
CN(C)N(C(=O)c1cc(-c2cccs2)nn1-c1ccccc1)C1CCS(=O)(=O)C1 (stereo not given) -36.5%
CSc1[nH]c(=O)c(C(=O)O)cc1C#N -33.3%
N#Cc1ccc(C(=O)OCC(=O)Nc2cccc(S(=O)(=O)NC3=NCCC3)c2)cc1 -30.8%
COc1ccc(CCn2nnnc2C(C(C)C)N2CCC(C(N)=O)CC2)cc1OC (stereo not given) -34.5%
Cn1c(=O)oc2cc(S(=O)(=O)N3CCCC(C(=O)N4CCc5ccccc5C4)C3)ccc21 (stereo not given) -30.5%
Cc1ccc(-c2c[n+](CC(=O)Nc3ccc(C)cc3C)c3n2CCC3)cc1 -30.4%
Cc1ccc(NC(=O)CS(=O)CC(=O)N(c2ccc(C)cc2)C(C)C(=O)NC2CCCCC2)cc1 (stereo not given) -42.6%
Cc1ccc(O)c(C(=O)CC(=O)c2ccc(Cl)cc2)c1 -41.2%
CCCCCC1CC(/C(C)=N/NC(N)=O)OC1=O (stereo not given) -48.8%
CCC(C)NC(=S)NNC(=O)c1ccc(C(C)(C)C)cc1 (stereo not given) -32.8%
Nc1nonc1-n1nnc(C(=O)N/N=C/c2ccc(Br)cc2)c1CSC1=NCCS1 -30.4%
CSc1ncccc1C(=O)OCC(=O)N(C)C1CCS(=O)(=O)C1 (stereo not given) -41.9%
CCN(c1cccc(C)c1)S(=O)(=O)c1nnc(NC(=O)c2ccco2)s1 -34.3%
COc1cccc(CNc2nc(NCC3CC3)nc3ccsc23)c1OC -45.4%
CN(C)S(=O)(=O)c1ccc2c(c1)nc(CCC(=O)NCC1CCCCC1)n2C -33.2%
COc1ccc(CN(Cc2cccn2C)C(=O)c2cc3cc(OC)ccc3[nH]2)cc1 -30.6%
CC1CCC(C(C)C)C(OCC(O)CN2CCCC(C)C2)C1 (stereo not given) -42%
COc1ccc(CNC(=O)C(c2ccncc2)N(C(=O)Cc2cccs2)c2ccccc2C)cc1 (stereo not given) -37.4%
CN(C)S(=O)(=O)c1ccc(C(=O)Nc2ccc(F)cc2F)cc1 -43.5%
COC(=O)c1cc2oc(C)cc2n1CC(=O)Nc1ccc(C)c(C)c1 -32.4%
N#Cc1c(Nc2ccccc2C(F)(F)F)s[nH]c1=O -37.7%
CSc1nc(SCCN(C)C)c2c3c(sc2n1)COC(C)(C)C3 -41%
CCOC(=O)c1cc(-c2ccccc2)sc1NC(=S)Nc1cccc(C)n1 -31.1%
CN(C)CC(C)(C)CNC(=S)NCc1ccc2c(c1)OCO2 -36.7%
O=C(O)CCCN1C(=O)/C(=C\c2ccc(-c3nc4ccccc4s3)o2)SC1=S -39.9%
CC1CN(S(=O)(=O)c2ccc(Cl)c(C(F)(F)F)c2)CC(C)O1 (stereo not given) -30.4%
COc1ccc(C2/C(=C(/O)c3ccc(F)cc3)C(=O)C(=O)N2CCCN(C)C)cc1 (stereo not given) -30.1%
c1ccc2nc(N3CCN(Cc4ccc5c(c4)OCO5)CC3)cnc2c1 -32.2%
COc1ccc(C(=O)C2CCCN(C3Cc4ccccc4C3)C2)cc1OC (stereo not given) -40.8%
CC1CN(C2CCN(C(=O)c3cccc(Cl)c3)CC2)CC(C)O1 (stereo not given) -30.5%
Cc1ccc(/C=N\NC(=O)CNC(=O)C23CC4CC(CC(C4)C2)C3)o1 -31.3%
COc1cccc2cc(C(=O)C3=C(O)C(=O)N(CCN4CCOCC4)C3c3cccc(Cl)c3)oc12 (stereo not given) -37.4%
S=C(NCC1COc2ccccc2O1)Nc1ccccc1 (stereo not given) -35.7%
Cc1ccc2c(c1)NCC(C(=O)NC1CCCCC1)O2 (stereo not given) -30.7%
NS(=O)(=O)c1ccc(NC(=S)N2CCN(c3cccc(Cl)c3)CC2)cc1 -32.3%
CC(=O)Nc1c([N+](=O)[O-])cc2[nH]c(=O)[nH]c2c1[N+](=O)[O-] -30.2%
Cc1ccc(C(=O)Nc2ccc(S(=O)(=O)N3CCN(C)CC3)cc2)cc1 -37.6%

Pulled by compound from the entries so far (three):
Max response, negative = inhibition, inconclusive:
Cc1ccc(O)c(C(=O)CC(=O)c2ccc(Cl)cc2)c1 -41.2%
COc1cccc(CNc2nc(NCC3CC3)nc3ccsc23)c1OC -45.4%
CC1CCC(C(C)C)C(OCC(O)CN2CCCC(C)C2)C1 (stereo not given) -42%

Following part:

Max response, negative = inhibition, active:
O=C(Nc1ccc(CN2CCCCC2)cc1)c1ccc(Br)o1 -62.4%
COc1ccc(S(=O)(=O)N2CCOCC2)cc1NC(=O)COc1cccnc1[N+](=O)[O-] -62.6%
CC1(C(=O)Nc2ccc3c(c2)OCCO3)CSCC(=O)N1C1CCN(Cc2ccccc2)CC1 (stereo not given) -61.5%
COc1ccc(CCC(C)NC2CCCCCCC2)cc1 (stereo not given) -67.2%
COc1cc([N+](=O)[O-])cc(/C=N/NC(=O)C(C)Nc2ccccc2C)c1O (stereo not given) -98.3%
Cn1c(-c2ccc(Br)cc2)cnc1NCc1cccnc1 -62.5%
CCn1c(=O)cc(SCC(=O)NCCCN2CCN(c3ccc(F)cc3)CC2)c2ccccc21 -67.9%
ClCC(CNCc1ccccc1)c1ccccc1 (stereo not given) -55.4%
CCCCOc1ccc(S(=O)(=O)NC(=O)C2(C)CCN2C(=O)CCc2ccccc2)cc1 (stereo not given) -50.2%
CC1SCCN1S(=O)(=O)c1ccc2ccccc2c1 (stereo not given) -58.8%
C/C(=N\NC(=O)c1ccc(Cl)cc1)c1ccccn1 -106%
CC1CN(CCOc2ccccc2C(C)C)CC(C)O1 (stereo not given) -68.5%
COc1ccc(CS(=O)(=O)/C(Cl)=C(/Cl)C(=O)Nc2ccc(OC)nc2)cc1 -50.8%
Cc1ccc(S(=O)(=O)Nc2ccc(N3CCN(C)CC3)nc2)cc1 -58.6%
CCCC(=O)c1c[nH]c(C(=O)NCc2cccnc2)c1 -88.2%
S=C(NN=C1C2CC3CC(C2)CC1C3)Nc1ccccc1 -65.9%
Cc1[nH]n(-c2ccccc2)c(=O)c1C(c1cccc([N+](=O)[O-])c1O)c1c(C)[nH]n(-c2ccccc2)c1=O -70.2%
CN(CCOc1ccc(Cl)cc1)CC(O)c1ccccc1 (stereo not given) -51.9%

Some of these compounds in order of count of non-hydrogen atoms, low to high.
Max response, negative = inhibition, active:
CC1SCCN1S(=O)(=O)c1ccc2ccccc2c1 (stereo not given) -58.8%
CCCC(=O)c1c[nH]c(C(=O)NCc2cccnc2)c1 -88.2%
COc1ccc(S(=O)(=O)N2CCOCC2)cc1NC(=O)COc1cccnc1[N+](=O)[O-] -62.6%

From PubChem BioAssay AID652054 (National Center for Advancing Translational Sciences (NCATS), 2013)
